# These are yes or no findings as the source states them, for the method shown. Binding seen in cells or lysates may run through a third protein. Some results given as binding are weak or reduced against the parent protein; the word gives no strength. For part of these data: Tags and fused reporters may be left off the sequences shown.
# The chains behind the UniProt entries cited, without tags or fusion partners.
# UniProt P03129: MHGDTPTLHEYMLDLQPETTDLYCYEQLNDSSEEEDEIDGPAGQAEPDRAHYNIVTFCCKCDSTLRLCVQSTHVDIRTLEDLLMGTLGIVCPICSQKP
# UniProt P06788: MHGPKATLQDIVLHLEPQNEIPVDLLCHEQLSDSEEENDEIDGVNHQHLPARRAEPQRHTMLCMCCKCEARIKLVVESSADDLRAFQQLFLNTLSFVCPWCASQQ
# Key:
# Flag-KAT8 = biological target: T1, Flag-KAT8 (UniProt Q9H7Z6); experiment: co-IP
# T1 sequence: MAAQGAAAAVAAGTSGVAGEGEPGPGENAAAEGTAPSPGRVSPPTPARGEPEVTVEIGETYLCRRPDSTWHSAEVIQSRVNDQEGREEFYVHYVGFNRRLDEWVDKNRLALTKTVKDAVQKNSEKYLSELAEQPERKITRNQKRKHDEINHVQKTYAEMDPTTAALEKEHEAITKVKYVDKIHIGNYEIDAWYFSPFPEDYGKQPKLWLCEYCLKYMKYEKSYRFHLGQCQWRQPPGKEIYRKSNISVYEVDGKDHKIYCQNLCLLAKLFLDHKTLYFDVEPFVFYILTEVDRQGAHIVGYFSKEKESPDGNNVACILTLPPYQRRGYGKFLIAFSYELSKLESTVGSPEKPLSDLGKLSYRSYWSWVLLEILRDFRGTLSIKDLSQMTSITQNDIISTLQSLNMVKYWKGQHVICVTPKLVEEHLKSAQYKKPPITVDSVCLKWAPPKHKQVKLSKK
# [1] = biological target: T2, retinoblastoma protein (pRb) (human (endogenous in HeLa)) (UniProt P06400); experiment: co-IP
# T2 sequence: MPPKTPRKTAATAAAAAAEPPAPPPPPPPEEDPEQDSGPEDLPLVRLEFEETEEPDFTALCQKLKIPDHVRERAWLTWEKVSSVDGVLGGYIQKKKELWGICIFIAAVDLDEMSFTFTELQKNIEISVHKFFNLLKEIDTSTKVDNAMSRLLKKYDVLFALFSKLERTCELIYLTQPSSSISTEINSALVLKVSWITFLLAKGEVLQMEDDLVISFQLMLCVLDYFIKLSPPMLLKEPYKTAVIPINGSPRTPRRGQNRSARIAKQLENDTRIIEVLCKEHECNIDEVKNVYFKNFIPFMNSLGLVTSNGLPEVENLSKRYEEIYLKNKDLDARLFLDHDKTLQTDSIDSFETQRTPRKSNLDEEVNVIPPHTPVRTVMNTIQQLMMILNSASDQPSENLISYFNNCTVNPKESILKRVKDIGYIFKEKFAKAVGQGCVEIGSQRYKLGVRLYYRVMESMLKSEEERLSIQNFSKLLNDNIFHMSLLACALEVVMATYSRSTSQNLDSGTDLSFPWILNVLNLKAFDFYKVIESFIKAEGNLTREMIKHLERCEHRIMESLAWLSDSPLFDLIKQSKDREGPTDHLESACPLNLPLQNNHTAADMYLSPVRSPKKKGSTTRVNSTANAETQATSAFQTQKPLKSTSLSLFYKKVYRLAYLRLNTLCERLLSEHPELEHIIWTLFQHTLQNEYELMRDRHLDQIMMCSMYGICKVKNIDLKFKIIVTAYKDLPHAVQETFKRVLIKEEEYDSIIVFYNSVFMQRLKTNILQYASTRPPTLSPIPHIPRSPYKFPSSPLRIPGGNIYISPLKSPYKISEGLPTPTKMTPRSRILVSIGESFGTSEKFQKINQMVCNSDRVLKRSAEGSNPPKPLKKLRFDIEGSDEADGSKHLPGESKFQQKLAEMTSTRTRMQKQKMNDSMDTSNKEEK
Substance,binding (Flag-KAT8),binding [1]
HA-HPV16-E7 (from UniProt P03129 1-98),binds,–
HA-HPV18-E7 (from UniProt P06788 1-105),binds,–
HPV18 E7 (endogenous in HeLa cells) (from UniProt P06788 1-105),–,binds

# Reference: doi:10.1101/2024.12.26.629157
